Laboratory results taken from patent publication US20220265821A1.
Where a chain is given by its changes, count along the chain named. Results are given in words; binding and its absence hold for the method and conditions named.

B1: VpreB antibody 5-2D7 (recombinant mouse-human chimeric IgG1/kappa) (antibody, V domains shown)
VH: QVQLQQPGAELVKPGASVKLSCKASGYTFTSYWMQWVKQRPGQGLEWIGEINPSNGRINYNEKFKSKATLTVDISSSTAYMQLSSLTSEDSAVYYCARSGLLDYWGQGTTLTDSS
VL: DVLMTQTPLSLPVSLGDQASISCRSSQSLIHSNGNTYLHWSLQKPGQSPKLLIYKVSNRFSGVPDRFSGSGSGTDFTLKISSVEAEDLGVYFCSQSTYVPLTFGAGTKLELKR
B2: VpreB antibody 5-14A8 (recombinant mouse-human chimeric IgG1/kappa) (antibody, V domains shown)
VH: EVQLEESGPSLVKPSQTLSLTCSVTGDSITSDYWTWIRKFPGNILEYMGYISSSGRIYYNPSLKSRISITRDTSKNQYYLQLSSVTTEDTATYYCARERYYYGSLDYWGQGTTLTVSS
VL: B1 VL with S28G, I30V, S41Y, S82R, S96T, Y98H, L101P, A105G, L111I
B3: VpreB antibody 5-14H5 (recombinant mouse-human chimeric IgG1/kappa) (antibody, V domains shown)
VH: B1 VH with Y32N, Q35N, I74K, D113V
VL: B1 VL with I30V, S41Y, S82R, V99L, K108R
B4: lambda-5 antibody 4-15E6 (recombinant mouse-human chimeric IgG1/kappa) (antibody, V domains shown)
VH: EVQLEESGAELVRSGASVKLSCTASGFNIKDYYLHWVKQRPEQGLEWIGWIDPENGNTDYAPKFQGKATMTADTSSNTAYLQLSSLTSEDTAVYYCNEGYYDYDTDSAMDYWGQGTSVTVSS
VL: B1 VL with I30V, N33D, N35I, S41Y, S82R, Y98R, L101W, A105G, L111I
B5: lambda-5 antibody 4-7A6 (mouse mAb purified from hybridoma) (antibody, V domains shown)
VH: EVQLQQSGTVLARPGTSVKMSCKASGYTFTSYWMHWVKQRPGQGLEWIGAIYLGNTDTSYNQKFKGKAKLTAVTSASSAYMELSSLTNEDSAVYYCTRADYDGTPFDYWGQGTTLTVSS
VL: DVVMTQNALTLSVTIGHPASISCRSSQSLLDSDGETYLSWLLQRPGQSPKRLIYLVSKLDSGVPDRFTGSGSGTDFTLKISRVEAEDLGVYYCWQGTHFPLTFGAGTKLELKR
B6: VpreB antibody 5-4A9 (recombinant mouse-human chimeric IgG1/kappa) (antibody, V domains shown)
VH: B1 VH with Q1E, P7S, K19Q, I58N, S66R, I74T, D113V
VL: B1 VL with I30V, S41Y, K79T, S82R

Target: human Ig kappa light chain (on the human B cell line Raji) (human)
Assay: flow cytometry on Raji cells

Binder	binding
B1	no binding (tested: 20 nM)
B2	no binding (tested: 20 nM)
B3	no binding (tested: 20 nM)
B4	no binding (tested: 20 nM)
B5	no binding (tested: 20 nM)
B6	no binding (tested: 20 nM)

Target: human Ig lambda light chain (on the human B cell line Ramos) (human)
Assay: flow cytometry on Ramos cells

Binder	binding
B1	no binding (tested: 20 nM)
B2	no binding (tested: 20 nM)
B3	no binding (tested: 20 nM)
B4	no binding (tested: 20 nM)
B5	no binding (tested: 20 nM)
B6	no binding (tested: 20 nM)
